Measured values taken from the supplement of paper PMC11732987, “Enantioselective OTUD7B fragment discovery through chemoproteomics screening and high-throughput optimisation” (Communications Chemistry, 2025).
The other results are listed elsewhere or left out. The data scatter; read single values as rough.

By UniProt entry, the sequences of proteins in these tests, tags left out. Where a name states a change or a piece, a line headed by the entry shows the natural chain unless it says otherwise. Residues count along the entry.
UniProt Q7Z6V5, 5-24: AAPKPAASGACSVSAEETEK
UniProt Q92667: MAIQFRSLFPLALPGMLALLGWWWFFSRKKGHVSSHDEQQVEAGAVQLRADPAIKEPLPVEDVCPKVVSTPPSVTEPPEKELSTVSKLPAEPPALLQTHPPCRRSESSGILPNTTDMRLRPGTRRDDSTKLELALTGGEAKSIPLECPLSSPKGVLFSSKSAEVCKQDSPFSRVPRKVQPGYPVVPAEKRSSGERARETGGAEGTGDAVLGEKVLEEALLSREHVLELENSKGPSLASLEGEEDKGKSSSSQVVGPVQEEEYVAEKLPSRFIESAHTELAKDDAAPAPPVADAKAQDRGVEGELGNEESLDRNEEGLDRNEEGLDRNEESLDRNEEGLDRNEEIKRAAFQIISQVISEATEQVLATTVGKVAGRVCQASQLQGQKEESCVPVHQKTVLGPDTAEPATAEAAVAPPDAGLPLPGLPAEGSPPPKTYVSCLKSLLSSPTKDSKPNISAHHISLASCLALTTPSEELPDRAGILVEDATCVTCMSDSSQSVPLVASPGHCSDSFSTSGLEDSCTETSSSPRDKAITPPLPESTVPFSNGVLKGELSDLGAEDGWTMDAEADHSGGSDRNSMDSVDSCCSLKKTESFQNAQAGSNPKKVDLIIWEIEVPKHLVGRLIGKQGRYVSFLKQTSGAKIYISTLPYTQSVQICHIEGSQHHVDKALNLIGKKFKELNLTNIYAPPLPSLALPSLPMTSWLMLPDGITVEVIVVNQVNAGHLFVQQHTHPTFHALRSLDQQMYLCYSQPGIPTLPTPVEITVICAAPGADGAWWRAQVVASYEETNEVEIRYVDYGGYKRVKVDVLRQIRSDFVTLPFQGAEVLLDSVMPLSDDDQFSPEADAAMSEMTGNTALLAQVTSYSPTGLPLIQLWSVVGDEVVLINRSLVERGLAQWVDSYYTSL
UniProt Q8TCU4, 419-439: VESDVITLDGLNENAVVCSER
UniProt P05091: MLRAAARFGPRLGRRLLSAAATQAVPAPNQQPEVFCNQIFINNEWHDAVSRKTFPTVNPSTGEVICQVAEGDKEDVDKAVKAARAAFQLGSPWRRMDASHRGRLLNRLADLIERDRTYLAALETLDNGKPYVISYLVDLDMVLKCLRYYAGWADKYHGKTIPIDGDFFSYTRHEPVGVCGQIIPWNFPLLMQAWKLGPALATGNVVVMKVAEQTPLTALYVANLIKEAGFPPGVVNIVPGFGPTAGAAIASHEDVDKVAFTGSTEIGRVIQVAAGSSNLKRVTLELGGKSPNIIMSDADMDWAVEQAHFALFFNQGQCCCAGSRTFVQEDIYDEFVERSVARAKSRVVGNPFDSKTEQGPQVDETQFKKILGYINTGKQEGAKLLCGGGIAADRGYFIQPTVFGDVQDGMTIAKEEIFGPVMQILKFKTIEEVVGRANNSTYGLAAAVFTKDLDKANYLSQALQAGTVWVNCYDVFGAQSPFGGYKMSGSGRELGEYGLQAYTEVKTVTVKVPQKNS
UniProt Q9UKA4: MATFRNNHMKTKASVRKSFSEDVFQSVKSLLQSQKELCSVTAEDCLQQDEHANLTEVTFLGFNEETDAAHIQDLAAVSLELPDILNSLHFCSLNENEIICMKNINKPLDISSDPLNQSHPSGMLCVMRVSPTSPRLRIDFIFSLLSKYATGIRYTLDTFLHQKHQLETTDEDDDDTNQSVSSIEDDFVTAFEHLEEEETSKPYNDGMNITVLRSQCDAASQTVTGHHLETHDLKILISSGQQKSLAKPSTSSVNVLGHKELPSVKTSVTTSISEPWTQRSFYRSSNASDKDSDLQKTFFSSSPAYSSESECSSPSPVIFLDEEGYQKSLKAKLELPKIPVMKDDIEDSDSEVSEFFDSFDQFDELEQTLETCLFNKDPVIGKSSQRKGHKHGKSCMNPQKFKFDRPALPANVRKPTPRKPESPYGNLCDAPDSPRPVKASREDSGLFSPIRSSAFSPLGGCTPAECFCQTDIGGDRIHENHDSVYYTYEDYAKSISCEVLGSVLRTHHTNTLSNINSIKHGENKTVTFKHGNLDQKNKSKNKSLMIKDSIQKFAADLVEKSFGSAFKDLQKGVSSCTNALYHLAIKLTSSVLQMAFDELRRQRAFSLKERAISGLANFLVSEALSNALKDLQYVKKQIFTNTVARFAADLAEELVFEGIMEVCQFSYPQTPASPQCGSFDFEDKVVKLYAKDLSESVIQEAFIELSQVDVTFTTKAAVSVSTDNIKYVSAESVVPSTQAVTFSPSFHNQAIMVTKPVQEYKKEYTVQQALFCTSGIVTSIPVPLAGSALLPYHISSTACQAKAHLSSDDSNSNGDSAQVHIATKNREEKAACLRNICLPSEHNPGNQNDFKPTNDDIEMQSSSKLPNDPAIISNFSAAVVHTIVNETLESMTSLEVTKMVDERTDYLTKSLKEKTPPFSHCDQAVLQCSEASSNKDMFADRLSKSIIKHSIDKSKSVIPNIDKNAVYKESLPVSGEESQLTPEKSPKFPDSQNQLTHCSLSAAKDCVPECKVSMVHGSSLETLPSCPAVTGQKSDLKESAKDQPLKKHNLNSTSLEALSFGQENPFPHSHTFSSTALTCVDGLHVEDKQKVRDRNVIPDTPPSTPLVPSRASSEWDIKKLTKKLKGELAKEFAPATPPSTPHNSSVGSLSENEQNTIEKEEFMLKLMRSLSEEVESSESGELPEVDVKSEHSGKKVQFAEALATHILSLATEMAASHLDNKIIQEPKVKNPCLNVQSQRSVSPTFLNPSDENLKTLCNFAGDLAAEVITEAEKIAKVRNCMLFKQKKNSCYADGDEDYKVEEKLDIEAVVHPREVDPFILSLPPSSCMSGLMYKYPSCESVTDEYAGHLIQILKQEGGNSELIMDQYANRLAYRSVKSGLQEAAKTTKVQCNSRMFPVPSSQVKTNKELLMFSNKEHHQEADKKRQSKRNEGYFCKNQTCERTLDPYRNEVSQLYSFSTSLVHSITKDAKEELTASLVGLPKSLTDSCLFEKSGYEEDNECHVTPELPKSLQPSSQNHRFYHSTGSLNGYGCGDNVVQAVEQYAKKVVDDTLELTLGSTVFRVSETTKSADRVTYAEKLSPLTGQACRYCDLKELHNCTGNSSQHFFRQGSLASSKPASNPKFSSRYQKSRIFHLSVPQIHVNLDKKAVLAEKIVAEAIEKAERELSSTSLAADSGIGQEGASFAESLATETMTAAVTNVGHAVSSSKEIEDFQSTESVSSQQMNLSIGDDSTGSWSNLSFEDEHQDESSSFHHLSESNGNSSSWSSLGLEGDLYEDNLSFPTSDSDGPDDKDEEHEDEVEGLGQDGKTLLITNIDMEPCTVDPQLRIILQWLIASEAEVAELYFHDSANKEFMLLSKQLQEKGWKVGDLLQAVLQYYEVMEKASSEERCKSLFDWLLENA
UniProt Q12802: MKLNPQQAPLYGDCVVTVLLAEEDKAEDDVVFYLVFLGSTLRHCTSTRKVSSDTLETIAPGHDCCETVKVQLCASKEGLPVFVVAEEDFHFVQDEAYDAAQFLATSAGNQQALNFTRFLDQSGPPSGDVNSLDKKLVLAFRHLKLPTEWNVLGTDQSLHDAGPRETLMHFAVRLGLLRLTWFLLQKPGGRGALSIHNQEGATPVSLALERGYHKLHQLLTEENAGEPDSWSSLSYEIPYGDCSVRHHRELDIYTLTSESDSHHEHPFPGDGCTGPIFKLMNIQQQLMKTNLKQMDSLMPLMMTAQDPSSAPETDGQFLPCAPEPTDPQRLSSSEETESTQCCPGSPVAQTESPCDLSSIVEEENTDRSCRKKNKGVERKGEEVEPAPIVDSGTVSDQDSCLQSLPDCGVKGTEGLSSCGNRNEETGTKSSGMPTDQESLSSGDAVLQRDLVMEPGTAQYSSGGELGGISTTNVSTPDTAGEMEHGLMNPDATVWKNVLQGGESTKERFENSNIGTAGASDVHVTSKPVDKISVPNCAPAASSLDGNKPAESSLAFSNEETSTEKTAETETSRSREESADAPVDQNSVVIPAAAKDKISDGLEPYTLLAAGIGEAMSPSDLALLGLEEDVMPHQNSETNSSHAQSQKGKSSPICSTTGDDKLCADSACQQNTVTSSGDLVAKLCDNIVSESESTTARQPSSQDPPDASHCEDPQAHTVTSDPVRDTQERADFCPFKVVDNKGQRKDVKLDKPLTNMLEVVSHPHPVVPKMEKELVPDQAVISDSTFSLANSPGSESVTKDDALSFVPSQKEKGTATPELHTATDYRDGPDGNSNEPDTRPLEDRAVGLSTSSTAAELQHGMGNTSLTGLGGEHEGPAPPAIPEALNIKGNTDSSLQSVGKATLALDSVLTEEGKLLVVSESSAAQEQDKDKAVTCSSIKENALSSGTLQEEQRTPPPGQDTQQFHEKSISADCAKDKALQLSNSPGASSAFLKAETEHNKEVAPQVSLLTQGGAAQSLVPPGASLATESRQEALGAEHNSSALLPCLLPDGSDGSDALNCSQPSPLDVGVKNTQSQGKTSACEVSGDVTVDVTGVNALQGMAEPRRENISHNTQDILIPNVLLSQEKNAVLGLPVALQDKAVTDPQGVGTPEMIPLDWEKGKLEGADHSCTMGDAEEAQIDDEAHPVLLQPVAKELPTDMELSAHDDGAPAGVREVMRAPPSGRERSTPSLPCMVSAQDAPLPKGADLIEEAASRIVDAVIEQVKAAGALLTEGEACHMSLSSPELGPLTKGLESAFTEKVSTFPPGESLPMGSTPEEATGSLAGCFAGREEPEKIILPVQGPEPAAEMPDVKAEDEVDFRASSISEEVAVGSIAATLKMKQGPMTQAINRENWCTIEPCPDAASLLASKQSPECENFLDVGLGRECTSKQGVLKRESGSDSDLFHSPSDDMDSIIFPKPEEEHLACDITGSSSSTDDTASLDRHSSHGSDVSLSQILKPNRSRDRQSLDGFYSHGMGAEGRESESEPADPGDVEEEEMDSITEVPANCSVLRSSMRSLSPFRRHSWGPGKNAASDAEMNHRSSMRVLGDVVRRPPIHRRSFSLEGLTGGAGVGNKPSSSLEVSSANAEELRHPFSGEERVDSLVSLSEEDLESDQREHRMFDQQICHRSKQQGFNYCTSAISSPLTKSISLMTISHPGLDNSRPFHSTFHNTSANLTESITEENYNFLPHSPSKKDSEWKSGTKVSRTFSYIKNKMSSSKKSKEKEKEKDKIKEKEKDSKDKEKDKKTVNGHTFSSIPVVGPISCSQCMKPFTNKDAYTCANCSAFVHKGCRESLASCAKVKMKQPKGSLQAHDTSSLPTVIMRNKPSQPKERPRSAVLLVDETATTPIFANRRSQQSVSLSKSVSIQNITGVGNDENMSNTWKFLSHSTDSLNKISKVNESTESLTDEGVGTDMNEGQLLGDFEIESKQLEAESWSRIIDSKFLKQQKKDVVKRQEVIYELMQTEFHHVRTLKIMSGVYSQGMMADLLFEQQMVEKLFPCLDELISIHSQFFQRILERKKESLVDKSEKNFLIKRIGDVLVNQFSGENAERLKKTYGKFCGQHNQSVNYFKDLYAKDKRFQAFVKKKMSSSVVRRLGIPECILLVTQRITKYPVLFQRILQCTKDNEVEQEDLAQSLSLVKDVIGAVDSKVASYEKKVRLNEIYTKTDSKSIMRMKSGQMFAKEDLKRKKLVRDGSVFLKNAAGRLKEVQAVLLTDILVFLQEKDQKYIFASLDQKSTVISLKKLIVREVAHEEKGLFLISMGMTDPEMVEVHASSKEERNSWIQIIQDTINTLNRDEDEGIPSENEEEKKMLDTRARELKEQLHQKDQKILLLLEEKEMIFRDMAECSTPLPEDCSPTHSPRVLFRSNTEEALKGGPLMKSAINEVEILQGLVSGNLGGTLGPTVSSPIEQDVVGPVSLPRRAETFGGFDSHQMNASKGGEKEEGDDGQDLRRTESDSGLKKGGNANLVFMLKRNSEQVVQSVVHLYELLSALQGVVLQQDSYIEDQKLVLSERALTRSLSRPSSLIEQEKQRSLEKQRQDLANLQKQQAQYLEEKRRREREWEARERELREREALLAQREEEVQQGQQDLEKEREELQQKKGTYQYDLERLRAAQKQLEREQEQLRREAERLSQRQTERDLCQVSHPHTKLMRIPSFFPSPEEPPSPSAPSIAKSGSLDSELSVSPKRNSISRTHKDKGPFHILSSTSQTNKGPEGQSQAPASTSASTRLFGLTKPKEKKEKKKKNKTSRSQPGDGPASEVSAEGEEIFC

Legend:
[1] = compound: ClCC(=O)N[C@@H]1CCCc2ccccc12; experiment: log2 mean competition ratio of IA-DTB cysteine labelling (DMSO/compound) (log2 ratio); higher = stronger cysteine engagement by compound; conditions: treatment time: 4 h, cell line lysate: HEK293T
Procedure: (§1)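 IA-DTB competitive cysteine chemoproteomics in HEK293T RIPA lysate. Lysates were treated with compound 29 or 30 at 50 or 200 µM for 4 h, then IA-DTB (500 µM, 1 h), trypsin-digested, NeutrAvidin-enriched and analysed by diaPASEF. Competition ratio = intensity DMSO / intensity compound (n=4 treated, n=64 DMSO); binding: mean log2 CR ≥ 1 and p ≤ 0.05 plus QC filters. Target is the cysteine site.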

[2] = compound: ClCC(=O)N[C@H]1CCCc2ccccc12; experiment: as above; conditions: treatment time: 4 h, cell line lysate: HEK293T
Procedure: as §1

Target	log2 mean competition ratio ([1]; 50 µM)	log2 mean competition ratio ([1]; 200 µM)	log2 mean competition ratio ([2]; 50 µM)	log2 mean competition ratio ([2]; 200 µM)
ANAPC1 C988 (UniProt Q9H1A4)	-0.438	-0.00826	0.134	-0.0148
ANKHD1 C213	-0.16	0.0335	-0.0998	-0.216
ADAT2 C15 (UniProt Q7Z6V5)	0.39	-0.388	0.342	-0.312
AKAP1 C64 (UniProt Q92667)	-0.346	0.327	-0.319	0.149
AFAP1L1 C547 (UniProt Q8TED9)	-0.148	-0.0351	0.123	0.173
ALMS1 C436 (UniProt Q8TCU4)	-0.345	0.265	-0.374	0.00965
ANGEL2 C139 (UniProt Q5VTE6)	0.408	0.409	0.2	0.149
ACSF2 C194 (UniProt Q96CM8)	-0.46	-0.102	0.0547	-0.115
ACTR5 C265 (UniProt Q9H9F9)	0.214	0.355	-0.0959	0.221
ACSF2 C462 (UniProt Q96CM8)	-0.24	-0.3	-0.293	-0.189
ALDH2 C386 (UniProt P05091)	0.35	0.423	0.247	0.032
AKAP11 C1587 (UniProt Q9UKA4)	0.158	0.183	0.278	0.215
AHR C316	-0.247	-0.0563	-0.494	-0.142
ACSS2 C75 (UniProt Q9NR19)	0.148	-0.045	-0.561	-0.228
ACTG1 C217	0.22	0.0356	0.64	-0.13
ADK C353	-0.116	-0.167	-0.76	-0.0856
AKAP13 C934 (UniProt Q12802)	-0.0335	-0.307	0.444	-0.241

Laid out differently: entries from further up
Target,log2 mean competition ratio ([1]; 50 µM),log2 mean competition ratio ([1]; 200 µM),log2 mean competition ratio ([2]; 50 µM),log2 mean competition ratio ([2]; 200 µM)
ADK C353,-0.116,-0.167,-0.76,-0.0856
AKAP13 C934 (UniProt Q12802),-0.0335,-0.307,0.444,-0.241
